Test results published in PubChem BioAssay.
The inconclusive results got no clear call from the source; some entries with a clear call stand among them for comparison. Calls of active or inactive are those of the source.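 How the source made its calls, unless noted: active means cell viability at or below a set limit in both duplicate runs, the limit being the all-compound median minus 4 SD (cut at about 23% in these data, passing the limit was not always enough); inconclusive means no clear call, values can overlap the other calls; inactive means the rest.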

test: doxorubicin toxicity protection in MRP-1 cells – H69AR cells, CellTiter-Glo, duplicate, MRP-1 activator project, pilot screen (AID 807;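 active means viability increase at or above a cutoff of the median across tested compounds plus 3 SD, cut at about 8.5% in these data, passing the limit was not always enough; inconclusive means some gains above the cutoff, reason not given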;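 further: compound pretreatment 18-22 h then 72 h combined with doxorubicin; 0% = doxorubicin alone and 100% = vehicle without doxorubicin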); conditions: H69AR viability with doxorubicin, CellTiter-Glo luminescence; at 10 µM; stronger effect = higher value

| Compound | viability increase |
| --- | --- |
| CCc1ccc(NC(=O)Cn2c(=O)oc3cc(S(=O)(=O)N4CCOCC4)ccc32)cc1 | inconclusive: 5.33% |
| c1nc(NCCN2CCOCC2)c2sc3nc(N4CCOCC4)c4c(c3c2n1)CCC4 | inactive: -6.1% |
| Oc1c(C(c2cccs2)N2CCN(c3cccc(Cl)c3)CC2)sc2ncnn12 (stereo not drawn) | inconclusive: 3.5% |
| COc1ccc(Cl)cc1N1C(=O)C2CCCN2C1c1ccc(F)c(F)c1 (stereo not drawn) | inconclusive: 2.16% |
| O=C(CCc1nc2ccccc2[nH]1)Nc1ccc2c(c1)OCCO2 | inactive: -2.36% |
| COc1ccc(CCc2nc(-c3ccc(-n4cccc4)cc3)no2)cc1 | inactive: 1.78% |
| CC(=O)NCc1cn2c(C)csc2n1 | inactive: -3.88% |
| Cc1ccc(-c2nc(CSCC(=O)N3CCN(C(=O)c4ccco4)CC3)c(C)o2)cc1 | inactive: -1.03% |

test: viability of HCT116 without oncogenic beta-catenin – human colon tumor cells, pilot screen (AID 823); conditions: HCT116 beta-catenin knockout viability, CellTiter-Glo, 60 h; at 10 µM; stronger effect = lower value;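 further: 0% = wells killed by 20 µM Hyamine and 100% = untreated DMSO cell wells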

| Compound | viability |
| --- | --- |
| COc1ccc(-c2nc(C(N)=O)c3[nH]c(=O)n(-c4cccc(C)c4)c3n2)c(OC)c1 | inactive: 81.6% |
| CCOc1ccccc1N(CC(=O)Nc1ccc2c(c1)OCO2)S(C)(=O)=O | inconclusive: 108% |
| CCOC(=O)C1CCN(C(=O)COc2cc(C)c(Br)c(C)c2)CC1 | inactive: 94.4% |
| C(=C\CSc1nnnn1-c1ccccc1)/CSc1nnnn1-c1ccccc1 | inconclusive: 88.5% |
| CCC1CCCCN1C(=O)Cn1c(=O)oc2ccccc21 (stereo not drawn) | inconclusive: 99.9% |
| CCc1ccc(N2CC34C=CC(O3)C(C(=O)OC)C4C2=O)cc1 (stereo not drawn) | inactive: 102% |
| Cc1cccc(-n2ncc3c(NCc4ccccc4)ncnc32)c1 | inconclusive: 28.6% |
| Cc1ccc(NC(=O)CC2SC3=NCCN3C2=O)cc1 (stereo not drawn) | inconclusive: 106% |
| O=C(CNC(=O)c1ccco1)OCc1ccc(Cl)cc1 | inconclusive: 106% |
| Cc1c(=O)n(OCc2ccccc2)c2ccccc2[n+]1[O-] | inactive: 95.9% |
| Cc1cccc(N2CCN(C(=O)C3CCN(c4nnc(-n5cccc5)s4)CC3)CC2C)c1 (stereo not drawn) | inactive: 40.1% |
| CN(C)c1nc(-c2ccccc2)c2cnn(Cc3ccccc3)c2n1 | inactive: 83.8% |
| Cc1nc(Nc2nc3ccccc3o2)nc2c1CCC2 | inactive: 77.7% |
| CC1CCc2nn(CC(=O)NCc3ccc(F)cc3)cc2C1 (stereo not drawn) | inactive: 86.4% |
| O=C(c1cnccn1)N(c1ccccc1)C1(C(=O)NC2CCCC2)CCCCC1 | inconclusive: 88% |
| Cc1ccc2nc(NC(=O)c3cccs3)sc2c1 | inconclusive: 71.4% |

| Compound | viability |
| --- | --- |
| Cn1c(C(=O)NCCCN2CCN(c3ccccc3F)CC2)cc2c(=O)n(C)c3ccccc3c21 | inconclusive: 39.9% |
| Cc1ccc(N2CC(C(=O)OCC(=O)C(C)(C)C)CC2=O)cc1 (stereo not drawn) | inconclusive: 107% |
| COC(=O)c1c(C)oc2cc(Br)c(OCC(=O)C(C)(C)C)cc12 | inconclusive: 96.5% |
| O=C(Cc1ccc(Cl)cc1)Nc1ccccc1CO | inconclusive: 105% |
| COc1ccc(OC)c2c(C)cc(N3CCCN(C)CC3)nc12 | inconclusive: 83.4% |
| O=C(C1CC1)N1CCc2cc(Br)cc(S(=O)(=O)NCCN3CCOCC3)c21 | inconclusive: 97.5% |
| CC(C)c1nnc(NC(=O)C2CCCCC2)s1 | inactive: 99.7% |
| CCOC(=O)c1c(O)c2c(n(Cc3ccco3)c1=O)CCCC2 | inconclusive: 107% |
| CCC(C)C1C(C#N)=C(N)Oc2n[nH]c(C)c21 (stereo not drawn) | inconclusive: 52.2% |
| O=C(CSc1nc2c(c(=O)n1-c1ccc(Br)cc1)SCC2)NCc1ccco1 | inconclusive: 81.2% |
| CC(c1ccccc1F)n1cc(C(=O)NCCc2ccco2)nn1 (stereo not drawn) | inconclusive: 85.6% |
| CCc1ccc(NC(=O)c2ccc3c(c2)C(=O)N(Cc2ccco2)C3=O)cc1 | inactive: 93.6% |
| CCOc1ccc(-c2nnc3sc(-c4c(OC)cccc4OC)nn23)cc1 | inconclusive: 89.6% |
| CCOc1ccc(N=CC2=C(O)CC(C)(C)CC2=O)cc1 | inactive: 92% |
| COc1cc(C2CC(=O)C=C(O)C2)cc(OC)c1OC (stereo not drawn) | inconclusive: 111% |
| COc1ccc(C)cc1NC(=O)CN(c1ccccc1)S(C)(=O)=O | inconclusive: 97.3% |

Pulled by compound from the entries so far, two records:

| Compound | viability |
| --- | --- |
| CCOc1ccc(-c2nnc3sc(-c4c(OC)cccc4OC)nn23)cc1 | inconclusive: 89.6% |
| COC(=O)c1c(C)oc2cc(Br)c(OCC(=O)C(C)(C)C)cc12 | inconclusive: 96.5% |

test: viability of PTEN-null HCT116 cells – cell-based, HCT116 clonal line, CellTiter-Glo, pilot screen (AID 824;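 active means viability at or below 27.92% in each of two runs, the all-compound median minus 4 SD; inconclusive means no clear call, values can overlap the other calls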;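 further: 0% = 20 µM Hyamine control and 100% = vehicle cell control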); conditions: HCT116 PTEN-deleted viability, 60 h, at 10 µM, stronger effect = lower value

| Compound | viability |
| --- | --- |
| CCc1ccc(NC(=O)Cn2c(=O)oc3cc(S(=O)(=O)N4CCOCC4)ccc32)cc1 | inactive: 89.2% |
| c1nc(NCCN2CCOCC2)c2sc3nc(N4CCOCC4)c4c(c3c2n1)CCC4 | inconclusive: 80.2% |
| Oc1c(C(c2cccs2)N2CCN(c3cccc(Cl)c3)CC2)sc2ncnn12 (stereo not drawn) | inactive: 90.5% |

test: RAM pathway blockade in budding yeast – dse1pr::URA3 reporter, 5-FOA selection, pilot screen (AID 869;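 active means inhibition over a set limit, the all-compound mean plus 3 SD, in both replicate runs; inconclusive means over that limit in just one replicate run; inactive means at or under that limit in both runs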;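 further: 0% = DMSO wells with no growth and 100% = 10 µM 1-NA-PP1 with full growth; RAM network block rescues cells from 5-FOA so hits raise OD615 growth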); conditions: S. cerevisiae dse1pr::URA3 5-FOA growth, OD615, 2 d; at 10 µM; stronger effect = higher value; strain carries analog-sensitive mutant Cbk1 kinase

| Compound | inhibition |
| --- | --- |
| COc1ccc(Cl)cc1N1C(=O)C2CCCN2C1c1ccc(F)c(F)c1 (stereo not drawn) | inactive: 1.33% |
| O=C(CCc1nc2ccccc2[nH]1)Nc1ccc2c(c1)OCCO2 | inconclusive: 4.35% |
| COc1ccc(CCc2nc(-c3ccc(-n4cccc4)cc3)no2)cc1 | inconclusive: 5.46% |
| CC(=O)NCc1cn2c(C)csc2n1 | inconclusive: 4.37% |
| Cc1ccc(-c2nc(CSCC(=O)N3CCN(C(=O)c4ccco4)CC3)c(C)o2)cc1 | inconclusive: 3.87% |
